From paper PMC6704582
These are yes or no findings as the source states them, for the method shown. Binding seen in cells or lysates may run through a third protein. Some entries that bind do so weakly or less than the wild type.

Protein sequences, listed by entry. Tags and fused reporters are not part of them.
UniProt O60260: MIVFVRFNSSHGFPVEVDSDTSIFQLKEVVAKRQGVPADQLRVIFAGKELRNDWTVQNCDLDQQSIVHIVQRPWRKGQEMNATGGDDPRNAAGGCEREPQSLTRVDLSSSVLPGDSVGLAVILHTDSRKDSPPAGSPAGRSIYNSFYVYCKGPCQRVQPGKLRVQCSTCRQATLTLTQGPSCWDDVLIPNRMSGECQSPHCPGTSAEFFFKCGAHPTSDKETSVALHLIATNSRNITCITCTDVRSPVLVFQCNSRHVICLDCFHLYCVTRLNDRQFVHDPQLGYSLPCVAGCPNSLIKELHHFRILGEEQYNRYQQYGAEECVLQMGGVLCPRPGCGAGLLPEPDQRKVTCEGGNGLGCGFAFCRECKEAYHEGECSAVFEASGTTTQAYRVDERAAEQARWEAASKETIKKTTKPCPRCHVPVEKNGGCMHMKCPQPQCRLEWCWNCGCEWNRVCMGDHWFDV
UniProt P35222: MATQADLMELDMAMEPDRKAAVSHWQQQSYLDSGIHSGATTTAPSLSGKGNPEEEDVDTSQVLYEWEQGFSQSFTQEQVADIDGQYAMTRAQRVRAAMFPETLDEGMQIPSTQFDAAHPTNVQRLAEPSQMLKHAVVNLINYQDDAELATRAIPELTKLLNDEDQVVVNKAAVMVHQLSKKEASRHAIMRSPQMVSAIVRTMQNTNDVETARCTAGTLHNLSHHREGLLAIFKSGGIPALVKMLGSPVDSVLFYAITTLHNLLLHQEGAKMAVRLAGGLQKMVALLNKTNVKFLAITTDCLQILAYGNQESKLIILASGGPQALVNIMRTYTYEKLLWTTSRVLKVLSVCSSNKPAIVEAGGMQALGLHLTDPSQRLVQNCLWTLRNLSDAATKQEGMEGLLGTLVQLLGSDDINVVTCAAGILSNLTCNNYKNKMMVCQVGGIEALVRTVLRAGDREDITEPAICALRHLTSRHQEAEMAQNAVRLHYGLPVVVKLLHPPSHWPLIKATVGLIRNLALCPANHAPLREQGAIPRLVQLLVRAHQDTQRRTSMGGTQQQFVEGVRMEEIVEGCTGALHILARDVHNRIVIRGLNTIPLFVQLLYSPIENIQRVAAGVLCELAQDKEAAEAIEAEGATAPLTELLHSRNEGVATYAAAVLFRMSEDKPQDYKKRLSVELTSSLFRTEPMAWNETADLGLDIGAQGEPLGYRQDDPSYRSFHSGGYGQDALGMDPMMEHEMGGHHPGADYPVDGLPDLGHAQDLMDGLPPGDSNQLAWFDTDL

Molecular target: Myc-tagged parkin (UniProt O60260)
Test: co-IP; HepG2 cells transfected with Myc-vector or Myc-parkin, ethanol treatment for 24 h; protein extracts immunoprecipitated with anti-Myc agarose, immunoblot for β-catenin

## β-catenin (from UniProt P35222 1-781)
  binding: binds
